Earlier results in patent US20150335610A1, “PDK4 INHIBITOR AND USE THEREOF” (priority 2012, published 2015).
Some of these results come from one statement about several compounds together. At least one structure is not confirmed: it was looked up by name or label, or the drawing left a doubt.

Chains of the proteins cited; added tags and fusions are not shown. Residues count along the entry.
UniProt Q15118, 29-436: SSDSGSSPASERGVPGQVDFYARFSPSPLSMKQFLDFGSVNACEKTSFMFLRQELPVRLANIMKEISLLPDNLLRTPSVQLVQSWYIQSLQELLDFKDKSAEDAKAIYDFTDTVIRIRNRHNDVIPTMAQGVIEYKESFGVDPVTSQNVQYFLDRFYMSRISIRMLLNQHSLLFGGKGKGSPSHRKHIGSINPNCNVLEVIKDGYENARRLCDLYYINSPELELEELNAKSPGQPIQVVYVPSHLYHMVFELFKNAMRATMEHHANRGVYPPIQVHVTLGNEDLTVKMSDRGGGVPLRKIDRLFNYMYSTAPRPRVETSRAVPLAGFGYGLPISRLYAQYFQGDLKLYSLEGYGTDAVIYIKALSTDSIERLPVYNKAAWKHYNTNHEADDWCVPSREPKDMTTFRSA

What was measured:
PDK1 = PDK1 (Homo sapiens, UniProt Q15118); details: reported, 'less than 1 μM order'; read-out: IC50 for PDK isozyme 1; cited from earlier work
PDK2 = PDK2 (Homo sapiens, UniProt Q15119); details: reported, 'less than 1 μM order'; read-out: IC50 for PDK isozyme 2; cited from earlier work

CN(C)C(=O)c1ccc(S(=O)(=O)c2ccc(NC(=O)[C@@](C)(O)C(F)(F)F)c(Cl)c2)cc1 [AZD7545]
IC50 (PDK1): < 1000 nM | IC50 (PDK2): < 1000 nM
